Results are given in words; binding and its absence hold for the method and conditions named. In cells and extracts the contact can be indirect. Some entries that bind do so weakly or less than the wild type. Sequences can lack the tags named with a protein.
T1: GFP-tagged aPKCι (UniProt P41743)
T1 sequence: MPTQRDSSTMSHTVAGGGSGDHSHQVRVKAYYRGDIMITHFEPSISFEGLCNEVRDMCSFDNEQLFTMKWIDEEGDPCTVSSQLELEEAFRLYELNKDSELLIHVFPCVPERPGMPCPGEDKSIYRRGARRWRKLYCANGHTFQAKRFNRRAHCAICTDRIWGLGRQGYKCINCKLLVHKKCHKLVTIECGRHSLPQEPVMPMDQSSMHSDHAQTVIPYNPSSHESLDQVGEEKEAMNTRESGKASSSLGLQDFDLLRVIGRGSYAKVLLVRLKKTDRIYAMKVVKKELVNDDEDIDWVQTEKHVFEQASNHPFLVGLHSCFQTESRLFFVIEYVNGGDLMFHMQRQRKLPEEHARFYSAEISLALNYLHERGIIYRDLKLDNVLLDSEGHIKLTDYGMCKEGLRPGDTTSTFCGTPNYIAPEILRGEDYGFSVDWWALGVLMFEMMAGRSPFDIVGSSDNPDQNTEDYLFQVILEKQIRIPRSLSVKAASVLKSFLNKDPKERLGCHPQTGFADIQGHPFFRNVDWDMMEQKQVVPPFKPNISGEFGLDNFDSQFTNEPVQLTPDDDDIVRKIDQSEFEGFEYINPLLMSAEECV

T2: aPKCι kinase domain (expressed in cells) (UniProt P41743)
T2 sequence: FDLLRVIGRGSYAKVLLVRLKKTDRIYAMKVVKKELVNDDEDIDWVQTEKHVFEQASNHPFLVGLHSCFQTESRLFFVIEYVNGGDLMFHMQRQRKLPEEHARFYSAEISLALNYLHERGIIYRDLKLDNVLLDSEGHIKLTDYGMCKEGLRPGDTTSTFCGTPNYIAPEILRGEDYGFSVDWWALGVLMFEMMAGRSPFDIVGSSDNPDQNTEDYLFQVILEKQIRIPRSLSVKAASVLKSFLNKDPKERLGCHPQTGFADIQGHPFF

B1: FARP2 S340A/S370A (protein, UniProt O94887 1-1054)
chain: MGEIEGTYRVLQTAGMRLGAQTPVGVSTLEPGQTLLPRMQEKHLHLRVKLLDNTMEIFDIEPKCDGQVLLTQVWKRLNLVECDYFGMEFQNTQSYWIWLEPMKPIIRQIRRPKNVVLRLAVKFFPPDPGQLQEEYTRYLFALQLKRDLLEERLTCADTTAALLTSHLLQSEIGDYDETLDREHLKVNEYLPGQQHCLEKILEFHQKHVGQTPAESDFQVLEIARKLEMYGIRFHMASDREGTKIQLAVSHMGVLVFQGTTKINTFNWSKVRKLSFKRKRFLIKLHPEVHGPYQDTLEFLLGSRDECKNFWKICVEYHTFFRLLDQPKPKAKAVFFSRGSAFRYSGRTQKQLVDYFKDSGMKRIPYERRHAKTHTSVRALTADLPKQSISFPEGLRTPASPSSANAFYSLSPSTLVPSGLPEFKDSSSSLTDPQVSYVKSPAAERRSGAVAGGPDTPSAQPLGPPALQPGPGLSTKSPQPSPSSRKSPLSLSPAFQVPLGPAEQGSSPLLSPVLSDAGGAGMDCEEPRHKRVPADEAYFIVKEILATERTYLKDLEVITVWFRSAVVKEDAMPATLMTLLFSNIDPIYEFHRGFLREVEQRLALWEGPSKAHTKGSHQRIGDILLRNMRQLKEFTSYFQRHDEVLTELEKATKRCKKLEAVYKEFELQKVCYLPLNTFLLKPIQRLLHYRLLLRRLCGHYSPGHHDYADCHDALKAITEVTTTLQHILIRLENLQKLTELQRDLVGIENLIAPGREFIREGCLHKLTKKGLQQRMFFLFSDMLLYTSKGVAGTSHFRIRGLLPLQGMLVEESDNEWSVPHCFTIYAAQKTIVVAASTRLEKEKWMLDLNSAIQAAKSGGDTAPALPGRTVCTRPPRSPNEVSLEQESEDDARGVRSSLEGHGQHRANTTMHVCWYRNTSVSRADHSAAVENQLSGYLLRKFKNSHGWQKLWVVFTNFCLFFYKTHQDDYPLASLPLLGYSVSIPREADGIHKDYVFKLQFKSHVYFFRAESKYTFERWMEVIQGASSSAGRAPSIVQDGPQPSSGLEGMVRGKEE
B2: FARP2 S340A (protein, UniProt O94887 1-1054)
chain: MGEIEGTYRVLQTAGMRLGAQTPVGVSTLEPGQTLLPRMQEKHLHLRVKLLDNTMEIFDIEPKCDGQVLLTQVWKRLNLVECDYFGMEFQNTQSYWIWLEPMKPIIRQIRRPKNVVLRLAVKFFPPDPGQLQEEYTRYLFALQLKRDLLEERLTCADTTAALLTSHLLQSEIGDYDETLDREHLKVNEYLPGQQHCLEKILEFHQKHVGQTPAESDFQVLEIARKLEMYGIRFHMASDREGTKIQLAVSHMGVLVFQGTTKINTFNWSKVRKLSFKRKRFLIKLHPEVHGPYQDTLEFLLGSRDECKNFWKICVEYHTFFRLLDQPKPKAKAVFFSRGSAFRYSGRTQKQLVDYFKDSGMKRIPYERRHSKTHTSVRALTADLPKQSISFPEGLRTPASPSSANAFYSLSPSTLVPSGLPEFKDSSSSLTDPQVSYVKSPAAERRSGAVAGGPDTPSAQPLGPPALQPGPGLSTKSPQPSPSSRKSPLSLSPAFQVPLGPAEQGSSPLLSPVLSDAGGAGMDCEEPRHKRVPADEAYFIVKEILATERTYLKDLEVITVWFRSAVVKEDAMPATLMTLLFSNIDPIYEFHRGFLREVEQRLALWEGPSKAHTKGSHQRIGDILLRNMRQLKEFTSYFQRHDEVLTELEKATKRCKKLEAVYKEFELQKVCYLPLNTFLLKPIQRLLHYRLLLRRLCGHYSPGHHDYADCHDALKAITEVTTTLQHILIRLENLQKLTELQRDLVGIENLIAPGREFIREGCLHKLTKKGLQQRMFFLFSDMLLYTSKGVAGTSHFRIRGLLPLQGMLVEESDNEWSVPHCFTIYAAQKTIVVAASTRLEKEKWMLDLNSAIQAAKSGGDTAPALPGRTVCTRPPRSPNEVSLEQESEDDARGVRSSLEGHGQHRANTTMHVCWYRNTSVSRADHSAAVENQLSGYLLRKFKNSHGWQKLWVVFTNFCLFFYKTHQDDYPLASLPLLGYSVSIPREADGIHKDYVFKLQFKSHVYFFRAESKYTFERWMEVIQGASSSAGRAPSIVQDGPQPSSGLEGMVRGKEE
B3: FLAG-tagged FARP1 (protein, UniProt Q9Y4F1 1-1045)
chain: MGEIEQRPTPGSRLGAPENSGISTLERGQKPPPTPSGKLVSIKIQMLDDTQEAFEVPQRAPGKVLLDAVCNHLNLVEGDYFGLEFPDHKKITVWLDLLKPIVKQIRRPKHVVVKFVVKFFPPDHTQLQEELTRYLFALQVKQDLAQGRLTCNDTSAALLISHIVQSEIGDFDEALDREHLAKNKYIPQQDALEDKIVEFHHNHIGQTPAESDFQLLEIARRLEMYGIRLHPAKDREGTKINLAVANTGILVFQGFTKINAFNWAKVRKLSFKRKRFLIKLRPDANSAYQDTLEFLMASRDFCKSFWKICVEHHAFFRLFEEPKPKPKPVLFSRGSSFRFSGRTQKQVLDYVKEGGHKKVQFERKHSKIHSIRSLASQPTELNSEVLEQSQQSTSLTFGEGAESPGGQSCRRGKEPKVSAGEPGSHPSPAPRRSPAGNKQADGAASAPTEEEEEVVKDRTQQSKPQPPQPSTGSLTGSPHLSELSVNSQGGVAPANVTLSPNLSPDTKQASPLISPLLNDQACPRTDDEDEGRRKRFPTDKAYFIAKEVSTTERTYLKDLEVITSWFQSTVSKEDAMPEALKSLIFPNFEPLHKFHTNFLKEIEQRLALWEGRSNAQIRDYQRIGDVMLKNIQGMKHLAAHLWKHSEALEALENGIKSSRRLENFCRDFELQKVCYLPLNTFLLRPLHRLMHYKQVLERLCKHHPPSHADFRDCRAALAEITEMVAQLHGTMIKMENFQKLHELKKDLIGIDNLVVPGREFIRLGSLSKLSGKGLQQRMFFLFNDVLLYTSRGLTASNQFKVHGQLPLYGMTIEESEDEWGVPHCLTLRGQRQSIIVAASSRSEMEKWVEDIQMAIDLAEKSSSPAPEFLASSPPDNKSPDEATAADQESEDDLSASRTSLERQAPHRGNTMVHVCWHRNTSVSMVDFSIAVENQLSGNLLRKFKNSNGWQKLWVVFTNFCLFFYKSHQDNHPLASLPLLGYSLTIPSESENIQKDYVFKLHFKSHVYYFRAESEYTFERWMEVIRSATSSASRPHVLSHKESLVY
B4: FLAG-tagged FARP2 (WT) (protein, UniProt O94887 1-1054)
chain: MGEIEGTYRVLQTAGMRLGAQTPVGVSTLEPGQTLLPRMQEKHLHLRVKLLDNTMEIFDIEPKCDGQVLLTQVWKRLNLVECDYFGMEFQNTQSYWIWLEPMKPIIRQIRRPKNVVLRLAVKFFPPDPGQLQEEYTRYLFALQLKRDLLEERLTCADTTAALLTSHLLQSEIGDYDETLDREHLKVNEYLPGQQHCLEKILEFHQKHVGQTPAESDFQVLEIARKLEMYGIRFHMASDREGTKIQLAVSHMGVLVFQGTTKINTFNWSKVRKLSFKRKRFLIKLHPEVHGPYQDTLEFLLGSRDECKNFWKICVEYHTFFRLLDQPKPKAKAVFFSRGSSFRYSGRTQKQLVDYFKDSGMKRIPYERRHSKTHTSVRALTADLPKQSISFPEGLRTPASPSSANAFYSLSPSTLVPSGLPEFKDSSSSLTDPQVSYVKSPAAERRSGAVAGGPDTPSAQPLGPPALQPGPGLSTKSPQPSPSSRKSPLSLSPAFQVPLGPAEQGSSPLLSPVLSDAGGAGMDCEEPRHKRVPADEAYFIVKEILATERTYLKDLEVITVWFRSAVVKEDAMPATLMTLLFSNIDPIYEFHRGFLREVEQRLALWEGPSKAHTKGSHQRIGDILLRNMRQLKEFTSYFQRHDEVLTELEKATKRCKKLEAVYKEFELQKVCYLPLNTFLLKPIQRLLHYRLLLRRLCGHYSPGHHDYADCHDALKAITEVTTTLQHILIRLENLQKLTELQRDLVGIENLIAPGREFIREGCLHKLTKKGLQQRMFFLFSDMLLYTSKGVAGTSHFRIRGLLPLQGMLVEESDNEWSVPHCFTIYAAQKTIVVAASTRLEKEKWMLDLNSAIQAAKSGGDTAPALPGRTVCTRPPRSPNEVSLEQESEDDARGVRSSLEGHGQHRANTTMHVCWYRNTSVSRADHSAAVENQLSGYLLRKFKNSHGWQKLWVVFTNFCLFFYKTHQDDYPLASLPLLGYSVSIPREADGIHKDYVFKLQFKSHVYFFRAESKYTFERWMEVIQGASSSAGRAPSIVQDGPQPSSGLEGMVRGKEE

What was measured:
GFP-tagged aPKCι [1] = molecular target: T1, GFP-tagged aPKCι; assay: co-IP; HCT116 cells co-transfected; GFP-Trap-M or FLAG-M2 beads, 4°C, 90 min; lysis buffer 20 mM Tris-HCl pH 8, 130 mM NaCl, 1% Triton X-100, 1 mM DTT, 10 mM NaF; some samples with the aPKCι inhibitor CRT0066854
GFP-tagged aPKCι [2] = molecular target: T1, GFP-tagged aPKCι; assay: FRET or BRET; FRET-FLIM in cells; GFP–PKCι as donor, FARP2–FLAG labelled with an Alexa Fluor 647 antibody as acceptor; regions of cell membranes
[3] = molecular target: T2, aPKCι kinase domain (expressed in cells); assay: co-IP; aPKCι kinase domain alone with FARP2; method not given, taken from its context (co-immunoprecipitation, deletion mapping)

| Binder | binding (GFP-tagged aPKCι [1]) | binding (GFP-tagged aPKCι [2]) | binding [3] |
| --- | --- | --- | --- |
| B1 | binds |  |  |
| B2 | binds |  |  |
| B3 | binds |  |  |
| B4 | binds | binds | binds |
